These are yes or no findings as the source states them, for the method shown. Binding calls can cover weak binding; strength is not graded here.
Target: purified human α5β1-integrin (human)
Test: solid-phase dot-ELISA, peptide immobilized

binding: binds
Binder: GAATASMAQ [synthetic peptide 240-248 with both cysteines replaced by alanines]

From patent US20100249184A1, “INDUCTION AND/OR MAINTENANCE OF TUMOR DORMANCY BY DISRUPTION OF UROKINASE PLASMINOGEN ACTIVATOR RECEPTOR-INTEGRIN INTERACTION” (MOUNT SINAI SCHOOL OF MEDICINE, priority 2007, published 2010)
